Consider one molecule from patent publication EP1141005B1 (Angiogenetics Sweden AB, dated 2007).

The chains behind the UniProt entries cited, without tags or fusion partners.
UniProt Q16665, whole entry: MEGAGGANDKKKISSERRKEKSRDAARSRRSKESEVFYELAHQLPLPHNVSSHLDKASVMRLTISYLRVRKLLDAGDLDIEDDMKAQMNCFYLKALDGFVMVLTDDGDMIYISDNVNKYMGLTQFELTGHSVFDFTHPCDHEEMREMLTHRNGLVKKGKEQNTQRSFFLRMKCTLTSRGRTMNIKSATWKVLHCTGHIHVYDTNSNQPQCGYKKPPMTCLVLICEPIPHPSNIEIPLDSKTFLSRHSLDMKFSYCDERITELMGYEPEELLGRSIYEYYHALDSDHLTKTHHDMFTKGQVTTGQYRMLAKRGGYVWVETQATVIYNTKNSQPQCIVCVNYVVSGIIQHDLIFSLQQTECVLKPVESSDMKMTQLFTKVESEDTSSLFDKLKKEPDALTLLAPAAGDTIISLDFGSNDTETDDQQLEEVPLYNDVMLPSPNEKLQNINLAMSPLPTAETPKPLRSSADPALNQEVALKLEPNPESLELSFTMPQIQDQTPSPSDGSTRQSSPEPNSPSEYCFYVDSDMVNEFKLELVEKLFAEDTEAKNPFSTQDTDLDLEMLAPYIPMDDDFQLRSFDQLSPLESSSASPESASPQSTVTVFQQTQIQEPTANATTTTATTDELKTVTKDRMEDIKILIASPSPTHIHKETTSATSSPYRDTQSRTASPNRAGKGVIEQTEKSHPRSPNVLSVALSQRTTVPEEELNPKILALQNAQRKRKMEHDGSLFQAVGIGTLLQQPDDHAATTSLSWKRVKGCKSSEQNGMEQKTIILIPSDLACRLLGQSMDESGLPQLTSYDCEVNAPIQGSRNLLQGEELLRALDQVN

What all share (experiment): cell-based or functional assay
The target of assay [1] is HIF-1α (wild-type human HIF-1α expressed from pCMV4/HIF-1α) (human, UniProt Q16665 1-826, limits assumed).
Another assay has as its target GAL4/HIF 776-826 (human, UniProt P04386 1-147 (Saccharomyces cerevisiae entry), [35S]methionine-labeled in the pull-down of paragraph 60 (in vitro translated)).
The next assay addresses GAL4/HIF 531-584 (human, UniProt P04386 1-147 (Saccharomyces cerevisiae entry), [35S]methionine-labeled in the pull-down of paragraph 60 (in vitro translated)).

B1: SRC-1 (full-length transcriptional coactivator SRC-1) (other, human, UniProt Q15788 1-1441, looked up)
chain: MSGLGDSSSDPANPDSHKRKGSPCDTLASSTEKRRREQENKYLEELAELLSANISDIDSLSVKPDKCKILKKTVDQIQLMKRMEQEKSTTDDDVQKSDISSSSQGVIEKESLGPLLLEALDGFFFVVNCEGRIVFVSENVTSYLGYNQEELMNTSVYSILHVGDHAEFVKNLLPKSLVNGVPWPQEATRRNSHTFNCRMLIHPPDEPGTENQEACQRYEVMQCFTVSQPKSIQEDGEDFQSCLICIARRLPRPPAITGVESFMTKQDTTGKIISIDTSSLRAAGRTGWEDLVRKCIYAFFQPQGREPSYARQLFQEVMTRGTASSPSYRFILNDGTMLSAHTKCKLCYPQSPDMQPFIMGIHIIDREHSGLSPQDDTNSGMSIPRVNPSVNPSISPAHGVARSSTLPPSNSNMVSTRINRQQSSDLHSSSHSNSSNSQGSFGCSPGSQIVANVALNQGQASSQSSNPSLNLNNSPMEGTGISLAQFMSPRRQVTSGLATRPRMPNNSFPPNISTLSSPVGMTSSACNNNNRSYSNIPVTSLQGMNEGPNNSVGFSASSPVLRQMSSQNSPSRLNIQPAKAESKDNKEIASILNEMIQSDNSSSDGKPLDSGLLHNNDRLSDGDSKYSQTSHKLVQLLTTTAEQQLRHADIDTSCKDVLSCTGTSNSASANSSGGSCPSSHSSLTERHKILHRLLQEGSPSDITTLSVEPDKKDSASTSVSVTGQVQGNSSIKLELDASKKKESKDHQLLRYLLDKDEKDLRSTPNLSLDDVKVKVEKKEQMDPCNTNPTPMTKPTPEEIKLEAQSQFTADLDQFDQLLPTLEKAAQLPGLCETDRMDGAVTSVTIKSEILPASLQSATARPTSRLNRLPELELEAIDNQFGQPGTGDQIPWTNNTVTAINQSKSEDQCISSQLDELLCPPTTVEGRNDEKALLEQLVSFLSGKDETELAELDRALGIDKLVQGGGLDVLSERFPPQQATPPLIMEERPNLYSQPYSSPSPTANLPSPFQGMVRQKPSLGTMPVQVTPPRGAFSPGMGMQPRQTLNRPPAAPNQLRLQLQQRLQGQQQLIHQNRQAILNQFAATAPVGINMRSGMQQQITPQPPLNAQMLAQRQRELYSQQHRQRQLIQQQRAMLMRQQSFGNNLPPSSGLPVQMGNPRLPQGAPQQFPYPPNYGTNPGTPPASTSPFSQLAANPEASLANRNSMVSRGMTGNIGGQFGTGINPQMQQNVFQYPGAGMVPQGEANFAPSLSPGSSMVPMPIPPPQSSLLQQTPPASGYQSPDMKAWQQGAIGNNNVFSQAVQNQPTPAQPGVYNNMSITVSMAGGNTNVQNMNPMMAQMQMSSLQMPGMNTVCPEQINDPALRHTGLYCNQLSSTDLLKTEADGTQQVQQVQVFADVQCTVNLVGGDPYLNQPGPLGTQKPTSGPQTPQAQQKSLLQQLLTE
modifications: [35S]methionine-labeled in the pull-down of paragraph 40 (in vitro translated)
In the case of B1, the “HRE-dependent reporter gene activity, COS7, normoxic conditions” value in assay [1] is about 3 fold. Moreover, the “GAL4-responsive reporter gene activity, COS7, in the presence of SRC-1” value in the assay with GAL4/HIF 776-826 was 17 fold. In addition, the “GAL4-responsive reporter gene activity, COS7, hypoxic cells, overexpression of SRC-1” value with GAL4/HIF 531-584 amounted to 1.5 fold.
